Percent effect of library compounds

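Whole-cell growth test on Mycobacterium tuberculosis, read after 3 days in glucose-containing 7H9 medium; the read-out is not stated. Compounds at 500 µM. Higher reads as more growth inhibition (inferred: compounds with an IC50 in retests scored well above the rest). Of about 18,000 compounds tested this way, about 1,400 (7.9%) reached 50% or more in at least one test.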

Each number is a percent effect as filed. How 0% and 100% were set is not recorded. Most values in the screen are low, and negative values occur. This is an unselected part of the compounds tested.

{"structure": "OCC1CCCN(Cc2ccccc2)C1", "stereo": "stereo not drawn", "Percent Effect": 3.339}
{"structure": "O=C(CNC(=O)c1ccccc1F)Nc1ccsc1", "Percent Effect": 32.27}
{"structure": "NCCCN1CCN(c2ccccc2F)CC1", "Percent Effect": 60.25}
{"structure": "CC1CCCCN1CC(N)=O", "stereo": "stereo not drawn", "Percent Effect": -0.8524}
{"structure": "CN(C)c1ncccc1N", "Percent Effect": -94.61}
{"structure": "OCc1ccc2c(c1)OCCO2", "Percent Effect": 18.39}
{"structure": "O[C@H]1COC[C@@H]1N1CCCN(CCn2cncn2)CC1", "Percent Effect": 0.6321}
{"structure": "OCC1(O)CCCN(CCn2cc(Cl)cn2)CC1", "stereo": "stereo not drawn", "Percent Effect": -2.672}
{"structure": "CNC1CCc2nnc(C)n2CC1", "stereo": "stereo not drawn", "Percent Effect": -4.787}
{"structure": "C1CC(CN2CCOCC2)CN1", "stereo": "stereo not drawn", "Percent Effect": -1.57}
{"structure": "Cc1ncc(Br)cc1N", "Percent Effect": -8.421}
{"structure": "CN(C)CC1CCN(CC(=O)N(C)CC(F)(F)F)CC1", "Percent Effect": 7.545}
{"structure": "CCC(C(=O)N(C)Cc1ncnn1C)c1ccccc1", "stereo": "stereo not drawn", "Percent Effect": 27.48}
{"structure": "O=C1C=CC(=O)N1Cc1ccc(Cl)cc1", "Percent Effect": 100.7}
{"structure": "CCN1CCC(CC(=O)N(C)Cc2noc(C)n2)CC1", "Percent Effect": -10.81}
{"structure": "CC(NCCCn1cccn1)c1ccc2c(c1)OCO2", "stereo": "stereo not drawn", "Percent Effect": 28.67}
{"structure": "COc1ccc2oc(C(=O)NC(C)C(N)=O)c(C)c2c1", "stereo": "stereo not drawn", "Percent Effect": 7.445}
{"structure": "COC(=O)c1ccccc1C#N", "Percent Effect": 9.556}
{"structure": "COC(=O)c1ccc(NC(=O)CCn2cnnn2)cc1", "Percent Effect": 14.44}
{"structure": "COc1ccc(OC)c(NC(=O)C(C)C)c1", "Percent Effect": 46.61}
{"structure": "CNc1cc(OC)ccn1", "Percent Effect": 6.591}
{"structure": "NCc1cccc(S(=O)(=O)NCC(F)(F)F)c1", "Percent Effect": 16.77}
{"structure": "CCCN1CCN(C2CCNCC2)CC1", "Percent Effect": -9.146}
{"structure": "O=c1ccc(Br)cn1Cc1noc(C2CC2)n1", "Percent Effect": 62.68}
{"structure": "Cc1n[nH]c(C)c1S(=O)(=O)N1CCC(N)CC1", "Percent Effect": 0.6255}
{"structure": "COc1cccc(OC2CNC2)c1", "Percent Effect": 57.44}
{"structure": "CCCNC(=O)c1cccnc1SCC", "Percent Effect": 42.53}
{"structure": "NCc1ccc(N2CCC(O)CC2)cc1", "Percent Effect": 0.3633}
{"structure": "CN1CCCCC1C(=O)NCCOCc1ccccc1", "stereo": "stereo not drawn", "Percent Effect": 13.62}
{"structure": "CC(=O)c1ccc(C#N)cc1F", "Percent Effect": 2.705}
{"structure": "OCc1cn(CC2CC2)nn1", "Percent Effect": -5.302}
{"structure": "CCCC(N)C(=O)N(CC)Cc1ccoc1", "stereo": "stereo not drawn", "Percent Effect": 3.653}
{"structure": "CC(C)NC(=O)CCN(C)C(C)Cc1cnccn1", "stereo": "stereo not drawn", "Percent Effect": 0.3464}
{"structure": "Cc1ccccc1C(C#N)NC(=O)Cc1cccnc1", "stereo": "stereo not drawn", "Percent Effect": 27.5}
{"structure": "CC(=O)[C@@H]1CCCCN1", "Percent Effect": -4.625}
{"structure": "N[C@@H]1CC(=O)N(C2CC2)[C@H]1c1cccnc1", "Percent Effect": 6.146}
{"structure": "COC[C@@H](O)Cn1ccnc1C(=O)c1ccccc1", "Percent Effect": 18.42}
{"structure": "NC(=O)CN1CCCN(C(=O)c2cc(Br)cs2)CC1", "Percent Effect": 35.06}
{"structure": "CS(=O)(=O)CCN(CC(O)c1ccc(F)cc1)C1CC1", "stereo": "stereo not drawn", "Percent Effect": 21.5}
{"structure": "Cc1cc(C)n(C2CCCNC2)n1", "stereo": "stereo not drawn", "Percent Effect": 0.7527}
{"structure": "CCC(N)C(=O)NCCN1CCCC1", "stereo": "stereo not drawn", "Percent Effect": 2.196}
{"structure": "Cc1ncc(C(=O)N2C[C@@H]3CCCN[C@@H]3C2)cn1", "Percent Effect": 5.517}
{"structure": "CCN1C[C@H](NC(=O)c2ccc(Cl)s2)[C@@H](OC)C1", "Percent Effect": 66.77}
{"structure": "CCN(CC1CCCO1)C(=O)CCCc1cn[nH]c1", "stereo": "stereo not drawn", "Percent Effect": 9.83}
{"structure": "CC(CN1CCOCC1)Nc1ccncn1", "stereo": "stereo not drawn", "Percent Effect": 0.4997}
{"structure": "CCC(NCC(=O)NC1CC1)c1c(C)noc1C", "stereo": "stereo not drawn", "Percent Effect": 1.798}
{"structure": "N#Cc1ccncc1", "Percent Effect": 1.974}

Once more, the final 5:

| structure | Percent Effect |
|---|---|
| `CCN1C[C@H](NC(=O)c2ccc(Cl)s2)[C@@H](OC)C1` | 66.77 |
| `CCN(CC1CCCO1)C(=O)CCCc1cn[nH]c1` (stereo not drawn) | 9.83 |
| `CC(CN1CCOCC1)Nc1ccncn1` (stereo not drawn) | 0.4997 |
| `CCC(NCC(=O)NC1CC1)c1c(C)noc1C` (stereo not drawn) | 1.798 |
| `N#Cc1ccncc1` | 1.974 |

Source: ChEMBL document CHEMBL3988442, “University of Dundee, Small-Polar-MMV Screening Library” (2021).